Measurements: paper PMC8783446
These are yes or no findings as the source states them, for the method shown. Binding seen in cells or lysates may run through a third protein. These calls come from enrichment with a bait or labelling near it, and not all partners need be listed.

T1: γ-sarcoglycan (Sgcg), endogenous in mouse muscle (mouse (endogenous in gastrocnemius muscle)) (UniProt P82348)
T1 sequence: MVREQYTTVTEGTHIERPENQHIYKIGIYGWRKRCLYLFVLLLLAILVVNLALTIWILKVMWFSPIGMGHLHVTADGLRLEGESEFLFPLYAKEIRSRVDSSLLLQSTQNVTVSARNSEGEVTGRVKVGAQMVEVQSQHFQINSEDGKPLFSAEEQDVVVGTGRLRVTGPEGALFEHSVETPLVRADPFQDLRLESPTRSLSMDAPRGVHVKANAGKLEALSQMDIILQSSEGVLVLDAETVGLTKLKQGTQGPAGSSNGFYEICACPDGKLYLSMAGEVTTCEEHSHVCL


Target: T1, γ-sarcoglycan (Sgcg), endogenous in mouse muscle (mouse (endogenous in gastrocnemius muscle))
Assay: affinity purification with mass spectrometry; anti-Sgcg cross-linked to Protein A Dynabeads; RIPA1 extract (1% IGEPAL CA-630, 0.5% deoxycholate, 0.1% SDS) of the cytoskeleton-associated fraction of mouse gastrocnemius muscle (WT, Svil-/-); controls Sgcg-/- muscle and rabbit IgG; 2 h at 4 °C; LC-MS/MS, triplicates

Binder | binding
MYPT2 (myosin phosphatase target subunit 2 / protein phosphatase 1 regulatory subunit 12B) (protein, UniProt Q8BG95 1-976) MAELEHLGGKRAESARARRAEQLRRWRGSLTEQEPAERQGAGRQLQTRRGSPRVRFEDGAVFLAACSSGDTDEVKKLLARGADINTVNVDGLTALHQACIDENLDMVKFLVENRANVNQQDNEGWTPLHAAASCGYLNIAEYFISHGASVGIVNSEGEVPSDLAEEPAMKDLLLEQVKKQGVDLEQSRKEEEQQMLQDARQWLNSGRIEDVRQARSGATALHVAAAKGYSEVLRLLIQAGYELNVQDHDGWTPLHAAAHWGVKEACSILAEALCDMDIRNKLGQTPFDVADEGLVEHLEMLQKKQDVLRSEKETRNKLIESDLNSKFQSGLFKNKEKMLYEEEIPKSQDTEEENKESSSSSSEEEEGEDEVSESETEKEADKKPEATVNHSNSEIKSRIMEQIPAPAQNTFSASSARRLSSLFNKAEEPKDESPSSWRLGLRKTGSHNMLSEVANSREALRDRGSSIYRSSSSPRISALLDDKDKERENKSYFSMLVPRRLSSTSDIEEKENRESAVNLVRSGSHTRQLWRDEAKGSETPQTIAPSTYTSTYLKRTPYKSQADSTAEKTADSVSSSTPLCVITNRPAPSTANGVPAATVFSSAGTDPSVEAREKRRSYLTPVRDEEAESLRKARSRQARQTRRSTQGVTLTDLQEAEKTFSRSRAERQAQEQPGEKLEDPGGLEGSTKKQEPSAAPTKGAGEGRSLEEEPIYHRLRYPTQPDKPTTPVSPSASRPSLYTGSHLLRTSRASGPDSENSETSTHATAAKEMDTSEKGEADLDDQSSNRLSVRERRRAKDRRRGTGINFWTNDEDETDVSEEVKEALHERLSRLESGGTNPTSSDSYSDRASARARREAREARLASLTSRVEEDSNRDYKKLYESALTENQKLKTKLQEAQLELADIKAKLEKMAQQKQEKTSDRSSVLEVEKRERRALERKMSEMEEEMKVLTELKSDNQRLKDENGALIRVISKLSK | binds
PUR6 (protein, UniProt Q9DCL9 1-425) MATAVVVNIGKKLYEGKTKEVYELLDTPGRVLLQSKDQITAGNAARKNHLEGKAAISNKITSCIFQLLQEAGIKTAFTKKCGETAFIAPQCEMIPIEWVCRRIATGSFLKRNPGVQEGYKFYPPKVEMFFKDDANNDPQWSEEQLIAAKFCFAGLVIGQTEVDIMSHATQAIFEILEKSWLPQDCTLVDMKIEFGVDVTTKEIVLADVIDNDSWRLWPSGDRSQQKDKQSYRDLKEVTPEGLQMVKKNFEWVADRVELLLKSDSQCRVVVLMGSTSDLGHCEKIKKACGNFGIPCELRVTSAHKGPDETLRIKAEYEGDGIPTVFVSVAGRSNGLGPVLSGNTAYPVISCPPITPDWGAQDVWSSLRLPSGIGCSTILSPEGSAQFAAQIFGLNNHLVWAKLRASILNTWISLKQADKKVRQCNL | binds
Na+-K+-2Cl- cotransporter NKCC1, endogenous in mouse muscle (protein, UniProt P55012 1-1205) MEPGPARPRLAPAARPGWGRAAGCRRRGGPARHGRASGQEDATTAGRQAGGGVRGEGTPAAGDGLGRPLGPTPSQSRFQVDPVSENAGRAAAAAAAAAAAAAAAGAAGKETPAAGKAGGESGVAKGSEEAKGRFRVNFVDPAASSSADDSLSDAAGVGGDGPNVSFQNGGDTVLSEGSSLHSGGGSGHHQQYYYDTHTNTYYLRTFGHNTMDAVPRIDHYRHTAAQLGEKLLRPSLAELHDELEKEPFEDGFANGEESTPTRDAVVAYTAESKGVVKFGWIKGVLVRCMLNIWGVMLFIRLSWIVGQAGIGLSVVVIAMATVVTTITGLSTSAIATNGFVRGGGAYYLISRSLGPEFGGAIGLIFAFANAVAVAMYVVGFAETVVELLKEHSILMIDEINDIRIIGAITVVILLGISVAGMEWEAKAQIVLLVILLLAIADFVIGTFISLESKKPKGFFGYKSEIFNENFGPDFREEETFFSVFAIFFPAATGILAGANISGDLADPQSAIPKGTLLAILITTVVYIGIAVSVGSCVVRDATGNVNDTITTELTNCTSAACKLNFDFSYCESNTCSYGLMNNFQVMSMVSGFAPLISAGIFSATLSSALASLVSAPKIFQALCKDNIYPAFQMFAKGYGKNNEPLRGYILTFLIALGFILIAELNVIAPIISNFFLASYALINFSVFHASLAKSPGWRPAFKYYNMWISLIGAILCCIVMFVINWWAALLTYVIVLGLYIYVTYKKPDVNWGSSTQALTYLSALQHSIRLSGVEDHVKNFRPQCLVMTGSPNSRPALLHLVHDFTKNVGLMICGHVHMGPRRQAMKEMSIDQARYQRWLIKNKMKAFYAPVHADDLREGAQYLMQAAGLGRMKPNTLVLGFKKDWLQADMRDVDMYINLFHDAFDIQFGVVVIRLKEGLDISHLQGQEELLSSQEKSPGTKDVVVNVDYSKKSDQDTCKSSGEKSITQKDEEEDGKTPTQPLLKKESKGPIVPLNVADQKLLEASTQFQKKQGKNTIDVWWLFDDGGLTLLIPYLLTTKKKWKDCKIRVFIGGKINRIDHDRRAMATLLSKFRIDFSDIMVLGDINTKPKKENIIAFDDMIEPYRLHEDDKEQDIADKMKEDEPWRITDNELELYKTKTYRQIRLNELLKEHSSTANIIVMSLPVARKGAVSSALYMAWLEALSKDLPPVLLVRGNHQSVLTFYS | binds

Second part, the binder after the results:

binding | Binder
binds | Prdx3 (protein, UniProt P20108 63-257) TPAVTQHAPYFKGTAVVNGEFKELSLDDFKGKYLVLFFYPLDFTFVCPTEIVAFSDKANEFHDVNCEVVAVSVDSHFSHLAWINTPRKNGGLGHMNITLLSDITKQISRDYGVLLESAGIALRGLFIIDPNGVVKHLSVNDLPVGRSVEETLRLVKAFQFVETHGEVCPANWTPESPTIKPSPTASKEYFEKVHQ
binds | PURA (protein, UniProt P42669 1-321) MADRDSGSEQGGAALGSGGSLGHPGSGSGSGGGGGGGGGGGGSGGGGGAPGGLQHETQELASKRVDIQNKRFYLDVKQNAKGRFLKIAEVGAGGNKSRLTLSMSVAVEFRDYLGDFIEHYAQLGPSQPPDLAQAQDEPRRALKSEFLVRENRKYYMDLKENQRGRFLRIRQTVNRGPGLGSTQGQTIALPAQGLIEFRDALAKLIDDYGVEEEPAELPEGTSLTVDNKRFFFDVGSNKYGVFMRVSEVKPTYRNSITVPYKVWAKFGHTFCKYSEEMKKIQEKQREKRAACEQLHQQQQQQQEETTAATLLLQGEEEGEED
binds | Palladin (protein, UniProt Q9ET54 1-1408) MSETSSHDSFYDSLSDVQEEGKSADFFPGLSAFLSQEEINKSLDLARRAIDSSETEDFDSEKEISQIFSKSPISLCETPSHEEPKSGKQTSSERPQDSRRAPVQPLTGDQAERITSPGSKRKPGVSPLLASPSYIRSLRKAEKRGAKNPNPSSKPKTAQQSKAGPQSQLCDKAASFIEELTSIFREAAKPRNRSPNGESSSPDSGYLSPKNQPSALMSASASQSPTADQLDQLEMDAEVKQAQGSLCYQAHQASEETLPLAHIPHPQPQKARHLPTAPRFIQKLRSQEVAEGSRVYLECRVTGNPTPRVRWFCEGKELYNSPDVQIHCESGELHTLVIAEAFEDDTGRYTCLATNPSGSDSTSAEVFIEGASSTDSDSESLSFISKAGAMPQAQKKTTSVSLTIGSSAPKTGVTTAVIQPLSVPVQQAHSATSYLCRPDGTTMGCLLPVFTKELQNTAASEGQVVVLECRVRGAPPLQVQWFRQGSEIQDSPDFRILQKKPRSTAEPEEICTLVIAESFPEDAGIFTCSATNDYGSVTSTAQLVITSANNENCSYDSTGEPNSDHFQHFPPPPPILETGSYELASQKPSEIQQVNSPNLGFSMAALQMQFNTAERETNGVHPSHGVNGLINGKAYGNKSPPTPTALLSPTKEPPPLLAKPKLDPLKLQQLQNQVRLEQEACAWPPAPPGVPCNSSSSGSSAPPSPPFPPPPPAFPELAACASPVPSEPMSALASRATAMQSSGSFNYARPKQFIAAQNLGPASGLPTPTSSPSSSSLPSPLSPTPRPFGRAPGPPFVEPEAMWGPSSPSPPPPPPPVFSPSAAYPVPDVFPLPPPPPPLPSSTSHCASPARFGPSQTPAAFLSALLPSQPPPVAVNALGLPKGVTPAGFPKKSSRTARIASDEEIQGTKDAVIQDLERKLRFKEDLLNNGQPRLTYEERMARRLLGADSANVFNIQEPEETAANQDAGAPRASVGGPLDGQKEYKVSSCEQRLISEIEYRLERSPVDESGDEVQDPDVPVENATAPFFEMKLKHYKIFEGMPVTFTCRVAGNPKPKIYWFKDGKQISPKSDHYTIQRDLDGTCSLHTTASTLDDDGNYTIMAANPQGRVSCTGRLMVQAVNQRGRSPRSPSGHPHARRPRSRSRDSGDENEPIQERFFRPHFLQAPGDLTVQEGKLCRMDCKVSGLPTPDLSWQLDGKPIRPDSAHKMLVRENGVHSLIIEPVTSRDAGIYTCIATNRAGQNSFNLELVVAAKEAHKAPVFMEKLQNTGVADGYPVRLECRVSGVPPPQIFWKKENESLTHSTERVSMHQDNHGYICLLIQGATKEDAGWYTVSAKNEAGIVSCTARLDVYTQWHQQPQTTKPKKVRPSASRYAALSDQGLDIKAAFQPEASPSHLTLNSGLVESEDL
